In patent US20130004416A1:
Results are given in words; binding and its absence hold for the method and conditions named. Some results given as binding are weak or reduced against the parent protein; the word gives no strength.

Sequences of proteins named here, by UniProt entry; tags and fusion partners are left off.
UniProt P11836: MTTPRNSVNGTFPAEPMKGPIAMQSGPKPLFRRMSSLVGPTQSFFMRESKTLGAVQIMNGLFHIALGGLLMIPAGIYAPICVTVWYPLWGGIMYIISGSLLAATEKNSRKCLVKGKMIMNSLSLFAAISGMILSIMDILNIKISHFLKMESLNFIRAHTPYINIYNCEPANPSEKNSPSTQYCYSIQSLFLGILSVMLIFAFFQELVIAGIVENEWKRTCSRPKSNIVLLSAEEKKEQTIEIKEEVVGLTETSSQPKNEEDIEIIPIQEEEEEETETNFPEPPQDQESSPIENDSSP

Molecular target: human CD20 on Raji B cells (human) (UniProt P11836)
Test: staining of Raji B cells, FITC-labeled secondary antibody

- binding: binds
B1: murine anti-human-CD20 mAb clone 5F1 (antibody, V domains shown)
VH: QVQLRQPGAELVKPGASVKMSCKASGYTFTSYNMHWVKQTPGQGLEWIGAIYPGNGDTSYNQKFKGKATLTADKSSSTAYMQLSSLTSEDSAVYYCARSHYGSNYVDYFDYWGQGTTLTVSS
VL: QIVLSQSPAILSASPGEKVTMTCRASSSLSFMHWYQQKPGSSPKPWIYATSNLASGVPARFSGSGSGTSYSLTISRVEAEDAATYFCHQWSSNPLTFGAGTKLELKR
